Library screening results

From ChEMBL document CHEMBL3988442, “University of Dundee, Small-Polar-MMV Screening Library” (2021).

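Whole-cell assay for inhibitors of Mycobacterium tuberculosis growth, labelled Cornell in the record; the read-out is not stated. The concentration is filed as 10 mM, unlikely as a test dose, so the dose is not known. The record gives no direction; compounds strong in two other growth screens of this library score well above the rest, so higher reads as stronger inhibition. Of about 53,000 compounds tested this way, about 900 (1.7%) reached 50% or more in at least one test.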

The filed quantity is “Percent Effect” (%).
How 0% and 100% were set is not recorded. Most values in the screen are low, and negative values occur.
This is an unselected part of the compounds tested.

Result for Clc1ccccc1-c1nnc(CSCCN2CCOCC2)o1 was 26.17%.
Result for O=c1c(-c2ccnc(N3CCCC[C@@H]3CO)n2)cnc2sccn12 was 6.191%.
Result for COCCN1CCN(Cc2nc(-c3ccoc3)no2)CC1 was -27.89%.
Result for CCOC(=O)N1CC2(CCNCC2)c2cc(Cl)ccc21.Cl was 11.41%.
Result for C[C@H]1CN(c2ccccn2)C[C@@]12CCN(c1cccnc1)C2=O.O=C(O)C(F)(F)F.O=C(O)C(F)(F)F was 13.08%.
Result for COc1cc(N2CCCC3(CCN(c4cccnc4)C3=O)C2)ncn1.O=C(O)C(F)(F)F (configuration not stated) was -31.33%.
Result for COc1ccccc1C(C)CC(=O)N1CCCS1(=O)=O (configuration not stated) was 23.71%.
Result for COc1cccc(-c2cc(C(=O)N3N=C(C)CC3(O)C(F)(F)F)[nH]n2)c1 (configuration not stated) was 58.69%.
Result for COCC1CN(C(=O)Cc2cccs2)Cc2nnn(C)c21 (configuration not stated) was -6.417%.
Result for NC(=O)CN(Cc1ncc(-c2ccccc2)o1)C1CCCC1 was 9.018%.
Result for c1ccc(-c2cccc(N3CCC(NCCc4cscn4)CC3)c2)cc1 was 93.63%.
Result for O=C(O)C(F)(F)F.[H][C@@]12CCCO[C@]1([H])[C@H](NC(=O)CC1CC1)CN(Cc1ccc(F)cc1)C2 was 12.41%.
Result for Cc1cc(C2CCCN2S(=O)(=O)c2cnn(C)c2)on1 (configuration not stated) was -13.49%.
Result for O=C(O)C(F)(F)F.[H][C@]12CCC[C@@]1(COCc1ccccn1)CN(S(=O)(=O)C1CC1)C2 was 10.97%.
Result for CCc1nc(CN(C)Cc2ncc(-c3cccs3)o2)cs1 was 22.49%.
Result for CNCC[C@H]1CC(C)(C)Oc2ccc(C)cc21 was -7.247%.
Result for Cc1ccsc1C(=O)NCCCn1nc2ccccn2c1=O was 16.16%.
Result for O=S(=O)(CCSc1nccn1C1CC1)c1ccccc1 was 11.85%.
Result for Cc1c(C(=O)N2CCC3(CCCN(CC4CC4)C3=O)C2)ccn1C (configuration not stated) was -5.099%.
Result for CCn1c(SCC(=O)N2CCCC2)nc2cc(C)[nH]c2c1=O was -28.05%.
Result for O=C(COc1ccc2c(c1)CCC2)NS(=O)(=O)c1cncc(Br)c1 was 8.023%.
Result for CS(=O)(=O)N1CCC(C(=O)NC(Cc2ccsc2)c2ccccn2)CC1 (configuration not stated) was 13.64%.
Result for CC(C)N(CCO)C(=O)c1cc(COc2ccc3c(c2)CCCC3)on1 was 25.04%.
Result for O=C(O)CCc1cn(C2CCN(c3ncccc3Cl)CC2)nn1 was 16.74%.
Result for CC(C)(O)c1cc(CC2(NCC3CCCCC3)COC2)no1 was -54.02%.
Result for CC[C@@H](C)[C@@H](N)C(=O)Nc1cccc(-c2cnc(N(C)C)nc2)c1 was 36.75%.
Result for CN(C)Cc1cn(-c2ccccc2C(=O)NCC2CCCCN2C)cn1 (configuration not stated) was 14.39%.
Result for O=C(c1cscn1)N1CCC[C@]2(C[C@@H](OCC3CC3)CO2)C1 was 1.067%.
Result for Cc1ccc(-c2cc(N)c(=O)n(CC(=O)NC3CCCCC3)n2)s1 was 21.23%.
Result for COc1cccc(Cn2c(C3CCNCC3)cc3cccnc32)c1.Cl was 13.76%.
Result for O=C(O)C(F)(F)F.O=C(O)C(F)(F)F.O=S(=O)(NCC1OCCc2cn(Cc3ccccn3)nc21)C1CC1 (configuration not stated) was -2.588%.
Result for CCCn1ncnc1C(C)NC(=O)C1CCN(C(C)C)CC1 (configuration not stated) was 8.041%.
Result for CC(CN1CCCC1=O)NC(=O)c1ccc(C(F)(F)F)[nH]c1=O (configuration not stated) was 10.98%.
Result for O=C(O)C1(Oc2ccccc2)CCN(c2ccncc2)CC1 was -29.18%.
Result for CC(C)c1ccc(N2CCc3onc(-c4ccc(F)c(F)c4)c3C2)nn1 was 23.17%.
Result for Cc1c(C)n(CC(O)CN2CCOCC2)c2c(Cl)cccc12.Cl (configuration not stated) was 3.425%.
Result for COCCn1ccc(=O)c(OCC(=O)Nc2ccc(Br)cc2)c1C was 27.51%.
Result for CN(C)c1nccnc1C1CCCN(c2cnccn2)C1 (configuration not stated) was 7.755%.
Result for Cl.c1nc(N2CCOCC2)sc1-c1cncn1CCCN1CCCCC1 was 47.13%.
Result for COc1ccccc1NC(=O)Cc1c(C)nc2c(c1C)c(=O)[nH]n2C was 1.031%.
Result for CC(=O)N1CCCN(C(C)c2ccc(Br)cc2)CC1 (configuration not stated) was -13.99%.
Result for Cc1cc(N(C)CCCn2cccn2)nc(N)n1 was 16.89%.
Result for CCN(C(=O)c1nc2c(s1)CCCN2C)C(C)C was -0.3808%.
Result for CC(C)C(CNCc1cccc2c1OCO2)N1CCOCC1 (configuration not stated) was 34.73%.
Result for O=C1CN(C(=O)c2cc(-c3ccco3)nc3c(Cl)cccc23)CCN1 was -8.761%.
Result for O=C(c1ncn2c1CNS(=O)(=O)c1ccccc1-2)N1CC=CC1 was 15.91%.
Result for O=C(CCc1nccs1)N1CCC(C(=O)O)(c2ccccc2)CC1 was 17.31%.
Result for CCCNC(c1cccnc1)c1ccc(F)c(C)c1.Cl.Cl (configuration not stated) was 2.244%.
Result for Cc1ncccc1CNc1ccc(OCCO)nc1 was -0.7301%.
Result for CCc1nc(C2CCCN2CC(=O)Nc2cc(C)no2)no1 (configuration not stated) was -4.496%.
Result for CCCc1cc(C(=O)N[C@@H]2CCC[C@@H](N3CCCC3)[C@@H]2O)no1 was 21.45%.
Result for COCC[C@]1(O)CCN(Cc2nnc(C)s2)C[C@H]1C was 8.939%.
Result for Cn1nnnc1SCCC(=O)NCC1Cc2ccccc2O1 (configuration not stated) was 11.59%.
Result for c1coc(-c2noc(CN3CCc4c(ncn4C4CC4)C3)n2)c1 was 14.73%.
Result for CN(C)c1nc(-c2ccncc2)nc2c1CCN(C(=O)[C@H](N)CO)C2 was -54.85%.

3 of the entries, repeated:

| structure | Percent Effect |
|---|---|
| `CC(C)N(CCO)C(=O)c1cc(COc2ccc3c(c2)CCCC3)on1` | 25.04% |
| `O=C(O)C(F)(F)F.O=C(O)C(F)(F)F.O=S(=O)(NCC1OCCc2cn(Cc3ccccn3)nc21)C1CC1` (configuration not stated) | -2.588% |
| `Cc1cc(N(C)CCCn2cccn2)nc(N)n1` | 16.89% |